In paper doi:10.1101/2025.11.03.686288:
Like-named read-outs stand apart in the source and are kept apart here. No constants are given. Whether binding was seen depends on the method and setting. Some binding calls cover weakened binding; strength is not graded here. Tags and fused reporters may be left off the sequences shown.

Columns and labels:
[1] = molecular target: T1, GAL4 DNA-binding domain fused to ScPCS60 (S. cerevisiae) (UniProt P38137); test: two-hybrid
T1 sequence: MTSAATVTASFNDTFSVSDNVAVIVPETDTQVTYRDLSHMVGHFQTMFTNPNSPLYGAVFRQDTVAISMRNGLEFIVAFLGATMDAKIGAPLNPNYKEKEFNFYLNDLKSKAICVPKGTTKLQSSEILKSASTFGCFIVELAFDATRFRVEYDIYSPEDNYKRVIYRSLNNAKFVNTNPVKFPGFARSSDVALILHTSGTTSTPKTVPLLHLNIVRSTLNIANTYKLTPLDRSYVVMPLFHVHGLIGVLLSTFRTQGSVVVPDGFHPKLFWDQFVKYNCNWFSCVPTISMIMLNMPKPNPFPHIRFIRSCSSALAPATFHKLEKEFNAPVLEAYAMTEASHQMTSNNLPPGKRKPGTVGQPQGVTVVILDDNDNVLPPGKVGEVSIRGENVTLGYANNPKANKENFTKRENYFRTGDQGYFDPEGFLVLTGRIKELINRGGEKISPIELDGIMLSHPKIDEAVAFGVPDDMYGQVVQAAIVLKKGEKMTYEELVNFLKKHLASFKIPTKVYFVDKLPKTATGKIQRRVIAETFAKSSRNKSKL

[2] = molecular target: T1, GAL4 DNA-binding domain fused to ScPCS60 (S. cerevisiae); test: two-hybrid; remark: listed apart in the source

binding [1]: binds | binding [2]: binds
B1: GAL4 activation domain fused to ScPEX5 (protein, UniProt P35056 1-612)
chain: MDVGSCSVGNNPLAQLHKHTQQNKSLQFNQKNNGRLNESPLQGTNKPGISEAFISNVNAISQENMANMQRFINGEPLIDDKRRMEIGPSSGRLPPFSNVHSLQTSANPTQIKGVNDISHWSQEFQGSNSIQNRNADTGNSEKAWQRGSTTASSRFQYPNTMMNNYAYASMNSLSGSRLQSPAFMNQQQSGRSKEGVNEQEQQPWTDQFEKLEKEVSENLDINDEIEKEENVSEVEQNKPETVEKEEGVYGDQYQSDFQEVWDSIHKDAEEVLPSELVNDDLNLGEDYLKYLGGRVNGNIEYAFQSNNEYFNNPNAYKIGCLLMENGAKLSEAALAFEAAVKEKPDHVDAWLRLGLVQTQNEKELNGISALEECLKLDPKNLEAMKTLAISYINEGYDMSAFTMLDKWAETKYPEIWSRIKQQDDKFQKEKGFTHIDMNAHITKQFLQLANNLSTIDPEIQLCLGLLFYTKDDFDKTIDCFESALRVNPNDELMWNRLGASLANSNRSEEAIQAYHRALQLKPSFVRARYNLAVSSMNIGCFKEAAGYLLSVLSMHEVNTNNKKGDVGSLLNTYNDTVIETLKRVFIAMNRDDLLQEVKPGMDLKRFKGEFSF
